Measured values from article PMC5643558.
Numbering of substitutions follows the chain as printed. In names and notes the source's numbering stands. These are yes or no findings as the source states them, for the method shown. For some assays here: In cells and extracts the contact can be indirect. Some entries that bind do so weakly or less than the wild type. Sequences can lack the tags named with a protein. One block for each binder: values may come before it.

By UniProt entry, the sequences of proteins in these tests, tags left out.
UniProt P19474: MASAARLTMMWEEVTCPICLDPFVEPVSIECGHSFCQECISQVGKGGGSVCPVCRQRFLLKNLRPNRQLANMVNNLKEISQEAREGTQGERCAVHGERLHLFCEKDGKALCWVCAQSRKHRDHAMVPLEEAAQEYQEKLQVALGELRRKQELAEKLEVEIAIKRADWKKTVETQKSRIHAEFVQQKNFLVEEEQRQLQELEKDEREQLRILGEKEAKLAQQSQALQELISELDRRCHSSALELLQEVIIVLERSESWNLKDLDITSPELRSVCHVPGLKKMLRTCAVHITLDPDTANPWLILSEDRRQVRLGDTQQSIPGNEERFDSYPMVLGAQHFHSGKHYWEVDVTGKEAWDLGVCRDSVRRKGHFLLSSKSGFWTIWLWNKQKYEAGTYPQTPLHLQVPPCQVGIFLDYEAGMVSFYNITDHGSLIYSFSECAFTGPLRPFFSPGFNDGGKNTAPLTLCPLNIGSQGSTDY
UniProt P31749: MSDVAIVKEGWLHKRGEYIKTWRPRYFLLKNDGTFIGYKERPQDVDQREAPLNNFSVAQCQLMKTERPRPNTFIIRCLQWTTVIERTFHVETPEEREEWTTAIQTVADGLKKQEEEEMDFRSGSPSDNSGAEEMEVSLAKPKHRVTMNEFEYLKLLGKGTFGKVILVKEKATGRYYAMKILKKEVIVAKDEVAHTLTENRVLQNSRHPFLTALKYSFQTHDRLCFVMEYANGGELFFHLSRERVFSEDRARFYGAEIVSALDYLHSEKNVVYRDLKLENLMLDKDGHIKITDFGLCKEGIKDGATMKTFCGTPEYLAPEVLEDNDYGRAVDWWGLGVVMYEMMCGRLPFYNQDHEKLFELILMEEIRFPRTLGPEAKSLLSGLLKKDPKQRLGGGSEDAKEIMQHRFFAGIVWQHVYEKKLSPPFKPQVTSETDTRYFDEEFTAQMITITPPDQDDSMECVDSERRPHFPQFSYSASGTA

Experiments:
[1] = target: SFB-TRIM21 in U251 cells (human) (UniProt P19474); assay: pull-down; PFKP-depleted U251 cells with WT Flag-rPFKP or Flag-rPFKP S386A, transfected with SFB-TRIM21; with or without EGF (100 ng/ml) for the indicated times; pull-down of SFB-TRIM21
[2] = target: SFB-TRIM21 (Fig. 5p) (human) (UniProt P19474); assay: pull-down; PFKP-depleted 293T cells (text: U251 cells) with WT Flag-rPFKP or Flag-rPFKP S386D, transfected with SFB-TRIM21; pull-down of SFB-TRIM21
[3] = target: purified recombinant GST-AKT1 (UniProt P31749); assay: pull-down; GST pull-down; purified His-PFKP mixed with purified GST or GST-AKT1; glutathione agarose beads; both purified

binding [1]: binds
B1: WT Flag-rPFKP in U251 cells (protein, UniProt Q01813 1-784)
chain: MDADDSRAPKGSLRKFLEHLSGAGKAIGVLTSGGDAQGMNAAVRAVVRMGIYVGAKVYFIYEGYQGMVDGGSNIAEADWESVSSILQVGGTIIGSARCQAFRTREGRLKAACNLLQRGITNLCVIGGDGSLTGANLFRKEWSGLLEELARNGQIDKEAVQKYAYLNVVGMVGSIDNDFCGTDMTIGTDSALHRIIEVVDAIMTTAQSHQRTFVLEVMGRHCGYLALVSALACGADWVFLPESPPEEGWEEQMCVKLSENRARKKRLNIIIVAEGAIDTQNKPITSEKIKELVVTQLGYDTRVTILGHVQRGGTPSAFDRILASRMGVEAVIALLEATPDTPACVVSLNGNHAVRLPLMECVQMTQDVQKAMDERRFQDAVRLRGRSFAGNLNTYKRLAIKLPDDQIPKTNCNVAVINVGAPAAGMNAAVRSAVRVGIADGHRMLAIYDGFDGFAKGQIKEIGWTDVGGWTGQGGSILGTKRVLPGKYLEEIATQMRTHSINALLIIGGFEAYLGLLELSAAREKHEEFCVPMVMVPATVSNNVPGSDFSIGADTALNTITDTCDRIKQSASGTKRRVFIIETMGGYCGYLANMGGLAAGADAAYIFEEPFDIRDLQSNVEHLTEKMKTTIQRGLVLRNESCSENYTTDFIYQLYSEEGKGVFDCRKNVLGHMQQGGAPSPFDRNFGTKISARAMEWITAKLKEARGRGKKFTTDDSICVLGISKRNVIFQPVAELKKQTDFEHRIPKEQWWLKLRPLMKILAKYKASYDVSDSGQLEHVQPWSV

binding [2]: binds
B2: WT Flag-rPFKP (Fig. 5p) (protein, UniProt Q01813 1-784)
chain: B1 chain

binding [1]: binds
B3: Flag-rPFKP S386A in U251 cells (protein, UniProt Q01813 1-784)
chain: B1 chain with S386A

binding [2]: binds
B4: Flag-rPFKP S386D (protein, UniProt Q01813 1-784)
chain: B1 chain with S386D

binding [3]: binds
B5: His-PFKP (enzyme, UniProt Q01813 1-784)
chain: B1 chain
